For at least one entry, the source does not settle the construct or the ends of the probe. The comparison behind a weaker result is the experiment's own reference, which may not be listed here.
Biological target: L7Ae (Archaeoglobus fulgidus) (UniProt O29494)
Assay: inhibition of the protein
Settings: slight repression only at 5-10 uM L7Ae; purified recombinant protein; protein details: His tag (pET-28b+, NdeI/XhoI); variant of Box C/D-DsRed-Ex mRNA

The chains behind the UniProt entries cited, without tags or fusion partners. Where a name states a change or a piece, a line headed by the entry shows the natural chain unless it says otherwise.
UniProt O29494: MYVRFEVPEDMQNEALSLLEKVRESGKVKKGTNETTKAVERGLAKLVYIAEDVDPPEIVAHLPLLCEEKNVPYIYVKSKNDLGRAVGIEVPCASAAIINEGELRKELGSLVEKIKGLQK

Sequence: GGGAGACCACAACGGUUUCCCUCUAGAAAUAAUUUUGUUUAACUUUAAGAAGGAGAUAUACCAAUGAGGGGAAACCCAGCCUCCUCCGAGGACGUCAUCAAGGAGUUCAUGCGCUUCAAGGUGCGCAUGGAGGGCUCCGUGAACGGCCACGAGUUCGAGAUCGAGGGCGAGGGCGAGGGCCGCCCCUACGAGGGCACCCAGACCGCCAAGCUGAAGGUGACCAAGGGCGGCCCCCUGCCCUUCGCCUGGGACAUCCUGUCCCCCCAGUUCCAGUACGGCUCCAAGGUGUACGUGAAGCACCCCGCCGACAUCCCCGACUACAAGAAGCUGUCCUUCCCCGAGGGCUUCAAGUGGGAGCGCGUGAUGAACUUCGAGGACGGCGGCGUGGUGACCGUGACCCAGGACUCCUCCCUGCAGGACGGCUCCUUCAUCUACAAGGUGAAGUUCAUCGGCGUGAACUUCCCCUCCGACGGCCCCGUAAUGCAGAAGAAGACUAUGGGCUGGGAGGCCUCCACCGAGCGCCUGUACCCCCGCGACGGCGUGCUGAAGGGCGAGAUCCACAAGGCCCUGAAGCUGAAGGACGGCGGCCACUACCUGGUGGAGUUCAAGUCCAUCUACAUGGCCAAGAAGCCCGUGCAGCUGCCCGGCUACUACUACGUGGACUCCAAGCUGGACAUCACCUCCCACAACGAGGACUACACCAUCGUGGAGCAGUACGAGCGCGCCGAGGGCCGCCACCACCUGUUCCUGUAGUAAUGAAUA [Box C/D mut-DsRed-Ex mRNA]
- functional effect: less active

Reference: patent US20110040077
